Test results taken from publication PMC7862700.
This is a selection; strong and weak results do not stand in their true shares. At the low end of the ranking the order means little.

The chains behind the UniProt entries cited, without tags or fusion partners. Where a name states a change or a piece, a line headed by the entry shows the natural chain unless it says otherwise.
UniProt Q9Y603: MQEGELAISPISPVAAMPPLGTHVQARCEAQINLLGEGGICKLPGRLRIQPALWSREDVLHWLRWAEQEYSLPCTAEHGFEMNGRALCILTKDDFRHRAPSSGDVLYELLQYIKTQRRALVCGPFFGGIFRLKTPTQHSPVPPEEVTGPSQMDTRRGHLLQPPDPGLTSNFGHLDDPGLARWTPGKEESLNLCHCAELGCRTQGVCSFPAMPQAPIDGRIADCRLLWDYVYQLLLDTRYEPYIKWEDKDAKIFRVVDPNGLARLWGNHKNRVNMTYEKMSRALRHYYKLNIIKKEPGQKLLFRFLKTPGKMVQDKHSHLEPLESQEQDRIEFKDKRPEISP
UniProt P41212: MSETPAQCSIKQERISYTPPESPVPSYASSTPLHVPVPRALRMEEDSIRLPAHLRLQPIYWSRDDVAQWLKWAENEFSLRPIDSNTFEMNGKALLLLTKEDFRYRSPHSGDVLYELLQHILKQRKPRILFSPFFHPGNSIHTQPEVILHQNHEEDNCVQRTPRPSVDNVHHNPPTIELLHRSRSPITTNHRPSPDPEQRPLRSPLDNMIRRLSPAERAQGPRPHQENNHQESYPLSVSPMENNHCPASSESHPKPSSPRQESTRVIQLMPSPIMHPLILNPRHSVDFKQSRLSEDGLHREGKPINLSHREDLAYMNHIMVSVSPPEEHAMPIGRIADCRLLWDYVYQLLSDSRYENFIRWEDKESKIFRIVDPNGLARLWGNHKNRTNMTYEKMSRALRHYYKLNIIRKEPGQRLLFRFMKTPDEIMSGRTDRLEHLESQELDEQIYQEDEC

What follows are sequences tested against ETV7 (UniProt Q9Y603) (assay: DAPPL (digital affinity profiling via proximity ligation, sequencing)). Settings: 10 mM Tris-HCl pH 7.5, 50 mM NaCl, 1 mM DTT, 4% glycerol, room temperature, 30 min; GST-TFs on glutathione beads, 16-mer random dsDNA library, 0.1% …; high values mean tight binding; double strand, one strand shown; scale: fold enrichment (6-mer frequency, TF over GST control).

| Sequence | binding signal |
| --- | --- |
| GTAGAA | 0.941 |
| CAATGA | 0.94 |
| GAATGC | 1.03 |
| ATCCCG | 1.27 |
| CCCTAG | 0.88 |
| GGTTGT | 0.876 |
| TAGGTC | 1.11 |
| GACCCC | 0.87 |
| CGACAT | 1.23 |
| GATACA | 0.961 |
| TCAACA | 0.988 |
| GACTAT | 0.839 |
| TAGTCA | 0.874 |
| ATAGCC | 0.999 |
| AACCGA | 0.948 |
| CATTTG | 1.3 |
| TTGGAT | 1.01 |
| CGAACC | 1.11 |
| GCTGCT | 1.21 |
| ACCACA | 0.839 |
| GCCCCC | 0.939 |
| CAGCTC | 0.944 |
| CATATC | 1.24 |
| GGCAAT | 0.94 |

The sequences below were run against ETV6 (UniProt P41212) in the same assay as above. Settings: 10 mM Tris-HCl pH 7.5, 50 mM NaCl, 1 mM DTT, 4% glycerol, room temperature, 30 min; GST-TFs on glutathione beads, 16-mer random dsDNA library, 0.1% …; high values mean tight binding; double strand, one strand shown; scale: fold enrichment (6-mer frequency, TF over GST control).

| Sequence | binding signal |
| --- | --- |
| TACAGG | 1.19 |
| GTAGAA | 0.945 |
| CAATGA | 0.966 |
| TTGCAG | 1.12 |
| ACCTGA | 1.09 |
| GAATGC | 1.01 |
| TTTATC | 1.24 |
| ATCCCG | 1.52 |
| CTCGCT | 1.64 |
| TAGGTA | 0.996 |
| CCCTAG | 0.921 |
| CAAGAT | 1.01 |
| GGTTGT | 0.881 |
| TAGCAT | 1.15 |
| TAGGTC | 0.997 |
| GACCCC | 0.878 |
| CGACAT | 1.42 |
| ATTTTC | 1.43 |
| GATACA | 0.96 |
| TCAACA | 0.946 |

| Sequence | binding signal |
| --- | --- |
| TACGGC | 1.2 |
| GACTAT | 0.925 |
| TAGTCA | 0.828 |
| ATAGCC | 0.962 |
| TTCGAC | 1.3 |
| AACCGA | 0.955 |
| AAAAAT | 1.35 |
| CATTTG | 1.21 |
| TTGGAT | 0.979 |
| CGAACC | 1.1 |
| GCTGCT | 1.27 |
| CGTTGC | 1.04 |
| ACCACA | 1.08 |
| CCACAT | 1.2 |
| AATCCG | 1.49 |
| GCCCCC | 1.05 |
| CAGCTC | 0.989 |
| CATATC | 1.26 |
| GGCAAT | 0.99 |
